The source of these data is the supplement of paper PMC8426693.

The structures appear in SMILES notation. The list shows a part of the results.

For the first experiment, the system named is SARS-CoV-2 3'-UTR RNA. Briefly: NMR binding call after quantification (hit when 2 of 3 NMR criteria are met) (binary (1 = binding, 0 = not binding)); higher = binding. Conditions: RNA concentration 10 µM; fragment concentration 200 µM; 293 K.
On to `c1csc(-c2nnc[nH]2)n1`, for which the NMR binding call is 0.
On the same count and under the same terms, then `Cc1ccc(-c2nc(N)sc2C)cc1C`, with 0; and `O=C1CN(Cc2ccccc2)CC(=O)N1`, with 0; and `O=C(NCCc1ccncc1)c1ccccc1F`, with 0.
Still for that read-out and setting: then `O=C(CC1CCCCC1)Nc1cccnc1`, with 0; and `Cc1cc2ncn(CC(N)=O)c2cc1C`, with 1.
Still for that read-out and setting: then `COc1ccc(C(N)c2ccccc2)cc1.Cl` (stereo unspecified), with 0; and `CCN(CC)c1cccc(O)c1`, with 0; and `CC(=O)Nc1ccc(N2CCN(C)CC2)cc1`, with 0.
For `CC(=O)Nc1ccncc1C`, the NMR binding call worked out at 1.
`CC(=O)Nc1cc(C(=O)O)ccc1F` gave an NMR binding call of 0.
`COCC(=O)Nc1ccccc1C(N)=O` displayed an NMR binding call of 0.
In turn, `COC(=O)c1ccccc1NC(=O)N1CCCC1` displayed an NMR binding call of 0.
The molecule `NCc1ccccc1OC(F)(F)F` showed an NMR binding call of 0.
Same read-out and setting: the value for `N#CCC(=O)Nc1ccc(Cl)cc1` was 0; that for `Cc1nc2ccccc2n1CCC(N)=O` was 0; that for `Cl.NC1CCN(S(=O)(=O)c2ccccc2)C1` (stereo unspecified) was 0.
In turn, `CNS(=O)(=O)c1ccccc1Cl` registered an NMR binding call of 0.
The same measure, in the same setting: then `COC(=O)C1CC(O)CN1C(=O)c1ccco1` (stereo unspecified), with 0; and `CC(C)C(=O)NCc1nc2ccccc2[nH]1`, with 0.
On the same count and under the same terms, the value for `Cc1occc1C(=O)Nc1cc(C(C)(C)C)on1` was 0; that for `FC(F)(F)c1ccc(CN2CCOCC2)cc1` was 0; that for `CCCC(=O)Nc1cccnc1Cl` was 0.
In the case of `NC(=O)C1CCCn2ccnc21` (stereo unspecified), the NMR binding call stood at 0.
Still for that read-out and setting: the value for `CN(C)c1ccc(CNn2cnnc2)cc1` was 0.

The next experiment deals with SARS-CoV-2 3_SL1 RNA. The experiment is described as above. As to conditions: RNA concentration 10 µM; fragment concentration 200 µM; 293 K.
Consider `CC(=O)Nc1ccccc1OCc1ccccc1`, for which the NMR binding call came to 0.
The same measure, in the same setting: the value for `Cc1ccc(-c2nc(N)sc2C)cc1C` was 0; that for `CN(C)c1ccncc1` was 0; that for `O=C(Cc1ccccc1)N1CCc2ccccc21` was 0.
Still for that read-out and setting: then `O=C1CN(Cc2ccccc2)CC(=O)N1`, with 0; and `O=C(NCCc1ccncc1)c1ccccc1F`, with 0.
Same read-out and setting: the value for `O=C(CC1CCCCC1)Nc1cccnc1` was 0; that for `Cc1cc2ncn(CC(N)=O)c2cc1C` was 0.
With `COc1ccc(C(N)c2ccccc2)cc1.Cl` (stereo unspecified), the NMR binding call was 0.
On the same count and under the same terms, the value for `CCN(CC)c1cccc(O)c1` was 0; that for `CC(=O)Nc1ccc(N2CCN(C)CC2)cc1` was 0; that for `CCCc1cc(=O)oc2cc(OC(C)=O)ccc12` was 0.
`CC(=O)Nc1ccncc1C` returned an NMR binding call of 0.
`CC(=O)Nc1cc(C(=O)O)ccc1F` gave an NMR binding call of 0.
Still for that read-out and setting: the value for `COC(=O)c1ccccc1NC(=O)N1CCCC1` was 0.
The same measure, in the same setting: the value for `Cc1ccc(C(=O)Nc2nnc[nH]2)cc1C` was 0; that for `NCc1ccccc1OC(F)(F)F` was 0; that for `N#CCC(=O)Nc1ccc(Cl)cc1` was 0.
On the same count and under the same terms, the value for `Cc1ccc(CNC(=O)C2CCC2)cn1` was 0; that for `O=C(NCCc1ccncc1)NC1CCCCC1` was 0.
In turn, `CCOc1ccc(C(=O)Nc2cc(C)on2)cc1` showed an NMR binding call of 0.
As for `Cc1nc2ccccc2n1CCC(N)=O`, the NMR binding call is 0.
The same measure, in the same setting: then `CCN(CC)S(=O)(=O)c1ccc(C)cc1`, with 0; and `CNS(=O)(=O)c1ccccc1Cl`, with 0.
Consider `CC(C)C(=O)NCc1nc2ccccc2[nH]1`, for which the NMR binding call turned out to be 0.
The same measure, in the same setting: the value for `Cc1occc1C(=O)Nc1cc(C(C)(C)C)on1` was 0; that for `O=C(Nc1ccc(F)cc1)Nc1cccc(O)c1` was 0; that for `Cc1cccc(C(=O)Nc2ccc(C)cc2O)c1` was 0.
The same measure, in the same setting: the value for `FC(F)(F)c1ccc(CN2CCOCC2)cc1` was 0; that for `CC(O)CNC(=O)Nc1ccccc1` (stereo unspecified) was 0; that for `CCCC(=O)Nc1cccnc1Cl` was 0.
On the same count and under the same terms, then `CC(C)Nc1nc2ccccc2[nH]1`, with 0; and `Nc1ncncc1-c1ccc(Cl)cc1`, with 0; and `CC(C)N(C)c1ncnc2c1cnn2C`, with 0.
`NC(=O)C1CCCn2ccnc21` (stereo unspecified) displayed an NMR binding call of 0.
On the same count and under the same terms, the value for `CN(C)c1ccc(CNn2cnnc2)cc1` was 0.

The test system of another experiment is SARS-CoV-2 3_SL1+2 RNA. The description is as above. Conditions: RNA concentration 10 µM; fragment concentration 200 µM; 293 K.
In the case of `c1csc(-c2nnc[nH]2)n1`, the NMR binding call amounted to 0.
With `CC(=O)Nc1ccccc1OCc1ccccc1`, the NMR binding call turned out to be 0.
In turn, `Cc1ccc(-c2nc(N)sc2C)cc1C` showed an NMR binding call of 0.
The same measure, in the same setting: then `CN(C)c1ccncc1`, with 0; and `O=C(Cc1ccccc1)N1CCc2ccccc21`, with 0; and `CCN(CC)c1cccc(O)c1`, with 0.
Regarding `CCCc1cc(=O)oc2cc(OC(C)=O)ccc12`, the NMR binding call came to 0.
The same measure, in the same setting: the value for `CC(=O)Nc1cc(C(=O)O)ccc1F` was 0; that for `COCC(=O)Nc1ccccc1C(N)=O` was 0; that for `Cc1ccc(C(=O)Nc2nnc[nH]2)cc1C` was 0.
`NCc1ccccc1OC(F)(F)F` displayed an NMR binding call of 0.
`Cc1ccc(CNC(=O)C2CCC2)cn1`: the NMR binding call stood at 0.
The same measure, in the same setting: then `O=C(NCCc1ccncc1)NC1CCCCC1`, with 0; and `CCOc1ccc(C(=O)Nc2cc(C)on2)cc1`, with 0.
Still for that read-out and setting: then `CCN(CC)S(=O)(=O)c1ccc(C)cc1`, with 0; and `COC(=O)C1CC(O)CN1C(=O)c1ccco1` (stereo unspecified), with 0.
On to `O=C(Nc1ccc(F)cc1)Nc1cccc(O)c1`, for which the NMR binding call turned out to be 0.
Same read-out and setting: the value for `Cc1cccc(C(=O)Nc2ccc(C)cc2O)c1` was 0; that for `CC(O)CNC(=O)Nc1ccccc1` (stereo unspecified) was 0; that for `CCCC(=O)Nc1cccnc1Cl` was 0.
For the molecule `CC(C)Nc1nc2ccccc2[nH]1`, the NMR binding call came to 0.
As to `Nc1ncncc1-c1ccc(Cl)cc1`, the NMR binding call was 0.
Turning to `CC(C)N(C)c1ncnc2c1cnn2C`, the NMR binding call amounted to 0.
On the same count and under the same terms, then `NC(=O)C1CCCn2ccnc21` (stereo unspecified), with 0; and `CN(C)c1ccc(CNn2cnnc2)cc1`, with 0.
